In the assay the target is RAGE (endogenous, of NIH3T3 cells) (UniProt Q62151). Kind of assay: co-immunoprecipitation from lysates of S100P expressing NIH3T3 cells with S100P antibody, blot for RAGE.

By UniProt entry, the sequences of proteins in these tests, tags left out. Residues count along the entry.
UniProt Q62151, residues 23-402: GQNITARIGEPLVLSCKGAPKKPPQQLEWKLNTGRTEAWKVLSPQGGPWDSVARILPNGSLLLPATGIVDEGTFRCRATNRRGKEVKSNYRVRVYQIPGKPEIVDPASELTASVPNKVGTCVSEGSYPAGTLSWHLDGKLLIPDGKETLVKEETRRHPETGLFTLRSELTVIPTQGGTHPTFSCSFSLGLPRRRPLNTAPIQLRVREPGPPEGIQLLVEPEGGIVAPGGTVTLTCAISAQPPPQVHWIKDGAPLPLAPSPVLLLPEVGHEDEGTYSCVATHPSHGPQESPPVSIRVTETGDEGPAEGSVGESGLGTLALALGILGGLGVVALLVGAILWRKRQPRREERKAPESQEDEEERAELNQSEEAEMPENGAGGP

These are yes or no findings as the source states them, for the method shown. Binding seen in cells or lysates may run through a third protein. Some binding calls cover weakened binding; strength is not graded here.

B1: S100P expressed in NIH3T3 cells stably transfected with a full-length S100P cDNA in pcDNA3.1 (ligand, human, UniProt P25815 1-95, looked up)
chain: MTELETAMGMIIDVFSRYSGSEGSTQTLTKGELKVLMEKELPGFLQSGKDKDAVDKLLKDLDANGDAQVDFSEFIVFVAAITSACHKYFEKAGLK
With B1, the binding result is “binds”.

Values taken from patent US20050009067A1, “Expression profile of pancreatic cancer” (priority 2003, published 2005).
